Assay results as given in patent US20100143942A1, “METHOD OF DETECTION” (LEIDEN UNIVERSITY, priority 2006, published 2010).

Experiment: Titration of a mixture of Hc-Alexa350 and Ty-Cy5 with iodide in air-saturated solution, emission upon excitation at 280 nm
Type: binding
Protocol: The specificity of the method is illustrated by the data presented in FIG. 7, which show a titration of a mixture of Hc-Alexa350 and Ty-Cy5 with iodide in an air-saturated solution. […] Hc. […] The small fluorescence decrease of the latter can be ascribed to the aspecific collisional quenching of the label and/or the Trp fluorescence by iodide. […] The difference between the experimental Kd and the literature value of 3.0±0.3 mM [15] may be related to its dependence on the [O2] in the sample, which may have varied between the two experiments.

B1: Ty-Cy5: Streptomyces antibioticus tyrosinase labelled at its N-terminus with the dye Cy5 (conjugate, UniProt P07524 2-273, looked up)
Tyrosinase: TVRKNQASLTAEEKRRFVAALLELKRTGRYDAFVTTHNAFILGDTDNGERTGHRSPSFLPWHRRFLLEFERALQSVDASVALPYWDWSADRSTRSSLWAPDFLGGTGRSRDGQVMDGPFAASAGNWPINVRVDGRTFLRRALGAGVSELPTRAEVDSVLAMATYDMAPWNSGSDGFRNHLEGWRGVNLHNRVHVWVGGQMATGVSPNDPVFWLHHAYIDKLWAEWQRRHPSSPYLPGGGTPNVVDLNETMKPWNDTTPAALLDHTRHYTFDV
modifications: N-terminal Cy5 label
Excitation at 280 nm
  behaviour of the dye fluorescence upon increasing [I−]: an increase in label fluorescence is observed
Fitted to Eq. 1
  Hill n (iodide): 1.00
